From patent US20250283871A1, “COMPOSITIONS AND METHODS FOR MODULATING THE INTERACTION BETWEEN SS18-SSX FUSION ONCOPROTEIN AND NUCLEOSOMES” (Dana-Farber Cancer Institute, Inc., priority 2020, published 2025)

System: BAF complex subunits and histone proteins
Assay: Mass spectrometry proteomics of purified HA-SS18 WT and HA-SS18-SSX1 complexes (Tables 5A-5E)
Set-up: species or system human
[1] = HA-SS18SSX1_NE_peptides: protein co-purified with HA-SS18-SSX1 BAF complexes from soluble nuclear extract (NE), HEK-293T cells
[2] = HA-SS18WT_NE_peptides: proteins co-purified with HA-SS18 WT from nuclear extract (NE), HEK-293T
[3] = HA-SS18WT_NE_peptides: HA-SS18 WT complexes purified from nuclear extract (NE), HEK-293T, label = protein identified (Gene Symbol)
[4] = HA-SS18SSX1_NE_peptides (Table 5B), HA-SS18-SSX1 BAF complex purification from soluble nuclear extract, HEK-293T
[5] = HA-SS18WT_CHR_peptides: protein identified in HA-SS18 WT BAF complex purification from nuclease-treated solubilized chromatin (CHR), HEK-293T

Row | Molecule | Total (peptides) [1] | Unique (peptides) [1] | Total (peptides) [2] | Unique (peptides) [2] | Total (peptides) [4] | Unique (peptides) [4] | other results
1 | XPO5 (protein, UniProt Q9HAV4 2-1204, looked up) Exportin-5: AMDQVNALCEQLVKAVTVMMDPNSTQRYRLEALKFCEEFKEKCPICVPCGLRLAEKTQVAIVRHFGLQILEHVVKFRWNGMSRLEKVYLKNSVMELIANGTLNILEEENHIKDALSRIVVEMIKREWPQHWPDMLIELDTLSKQGETQTELVMFILLRLAEDVVTFQTLPPQRRRDIQQTLTQNMERIFSFLLNTLQENVNKYQQVKTDTSQESKAQANCRVGVAALNTLAGYIDWVSMSHITAENCKLLEILCLLLNEQELQLGAAECLLIAVSRKGKLEDRKPLMVLFGDVAMHYILSAAQTADGGGLVEKHYVFLKRLCQVLCALGNQLCALLGADSDVETPSNFGKYLESFLAFTTHPSQFLRSSTQMTWGALFRHEILSRDPLLLAIIPKYLRASMTNLVKMGFPSKTDSPSCEYSRFDFDSDEDFNAFFNSSRAQQGEVMRLACRLDPKTSFQMAGEWLKYQLSTFLDAGSVNSCSAVGTGEGSLCSVFSPSFVQWEAMTLFLESVITQMFRTLNREEIPVNDGIELLQMVLNFDTKDPLILSCVLTNVSALFPFVTYRPEFLPQVFSKLFSSVTFETVEESKAPRTRAVRNVRRHACSSIIKMCRDYPQLVLPNFDMLYNHVKQLLSNELLLTQMEKCALMEALVLISNQFKNYERQKVFLEELMAPVASIWLSQDMHRVLSDVDAFIAYVGTDQKSCDPGLEDPCGLNRARMSFCVYSILGVVKRTCWPTDLEEAKAGGFVVGYTSSGNPIFRNPCTEQILKLLDNLLALIRTHNTLYAPEMLAKMAEPFTKALDMLDAEKSAILGLPQPLLELNDSPVFKTVLERMQRFFSTLYENCFHILGKAGPSMQQDFYTVEDLATQLLSSAFVNLNNIPDYRLRPMLRVFVKPLVLFCPPEHYEALVSPILGPLFTYLHMRLSQKWQVINQRSLLCGEDEAADENPESQEMLEEQLVRMLTREVMDLITVCCVSKKGADHSSAPPADGDDEEMMATEVTPSAMAELTDLGKCLMKHEDVCTALLITAFNSLAWKDTLSCQRTTSQLCWPLLKQVLSGTLLADAVTWLFTSVLKGLQMHGQHDGCMASLVHLAFQIYEALRPRYLEIRAVMEQIPEIQKDSLDQFDCKLLNPSLQKVADKRRKDQFKRLIAGCIGKPLGEQFRKEVHIKNLPSLFKKTKPMLETEVLDNDGGGLATIFEP | 1 | 1 |  |  |  |  | 
2 | ATP5L (protein, UniProt O75964 2-103, looked up) ATP synthase F(0) complex …: AQFVRNLVEKTPALVNAAVTYSKPRLATFWYYAKVELVPPTPAEIPRAIQSLKKIVNSAQTGSFKQLTVKEAVLNGLVATEVLMWFYVGEIIGKRGIIGYDV | 1 | 1 | 1 | 1 |  |  | 
3 | CHST14 (protein, UniProt Q8NCH0 1-376, looked up) Carbohydrate sulfotransferase …: MFPRPLTPLAAPNGAEPLGRALRRAPLGRARAGLGGPPLLLPSMLMFAVIVASSGLLLMIERGILAEMKPLPLHPPGREGTAWRGKAPKPGGLSLRAGDADLQVRQDVRNRTLRAVCGQPGMPRDPWDLPVGQRRTLLRHILVSDRYRFLYCYVPKVACSNWKRVMKVLAGVLDSVDVRLKMDHRSDLVFLADLRPEEIRYRLQHYFKFLFVREPLERLLSAYRNKFGEIREYQQRYGAEIVRRYRAGAGPSPAGDDVTFPEFLRYLVDEDPERMNEHWMPVYHLCQPCAVHYDFVGSYERLEADANQVLEWVRAPPHVRFPARQAWYRPASPESLHYHLCSAPRALLQDVLPKYILDFSLFAYPLPNVTKEACQQ | 1 | 1 |  |  |  |  | 
4 | LPGAT1 (protein, UniProt Q92604 1-370, looked up) Acyl-CoA:lysophosphatidylglyce …: MAITLEEAPWLGWLLVKALMRFAFMVVNNLVAIPSYICYVIILQPLRVLDSKRFWYIEGIMYKWLLGMVASWGWYAGYTVMEWGEDIKAVSKDEAVMLVNHQATGDVCTLMMCLQDKGLVVAQMMWLMDHIFKYTNFGIVSLVHGDFFIRQGRSYRDQQLLLLKKHLENNYRSRDRKWIVLFPEGGFLRKRRETSQAFAKKNNLPFLTNVTLPRSGATKIILNALVAQQKNGSPAGGDAKELDSKSKGLQWIIDTTIAYPKAEPIDIQTWILGYRKPTVTHVHYRIFPIKDVPLETDDLTTWLYQRFVEKEDLLSHFYETGAFPPSKGHKEAVSREMTLSNLWIFLIQSFAFLSGYMWYNIIQYFYHCLF | 1 | 1 |  |  |  |  | 
5 | MARS (protein, UniProt P56192 1-900, looked up) Methionine--tRNA ligase, …: MRLFVSDGVPGCLPVLAAAGRARGRAEVLISTVGPEDCVVPFLTRPKVPVLQLDSGNYLFSTSAICRYFFLLSGWEQDDLTNQWLEWEATELQPALSAALYYLVVQGKKGEDVLGSVRRALTHIDHSLSRQNCPFLAGETESLADIVLWGALYPLLQDPAYLPEELSALHSWFQTLSTQEPCQRAAETVLKQQGVLALRPYLQKQPQPSPAEGRAVTNEPEEEELATLSEEEIAMAVTAWEKGLESLPPLRPQQNPVLPVAGERNVLITSALPYVNNVPHLGNIIGCVLSADVFARYSRLRQWNTLYLCGTDEYGTATETKALEEGLTPQEICDKYHIIHADIYRWFNISFDIFGRTTTPQQTKITQDIFQQLLKRGFVLQDTVEQLRCEHCARFLADRFVEGVCPFCGYEEARGDQCDKCGKLINAVELKKPQCKVCRSCPVVQSSQHLFLDLPKLEKRLEEWLGRTLPGSDWTPNAQFITRSWLRDGLKPRCITRDLKWGTPVPLEGFEDKVFYVWFDATIGYLSITANYTDQWERWWKNPEQVDLYQFMAKDNVPFHSLVFPCSALGAEDNYTLVSHLIATEYLNYEDGKFSKSRGVGVFGDMAQDTGIPADIWRFYLLYIRPEGQDSAFSWTDLLLKNNSELLNNLGNFINRAGMFVSKFFGGYVPEMVLTPDDQRLLAHVTLELQHYHQLLEKVRIRDALRSILTISRHGNQYIQVNEPWKRIKGSEADRQRAGTVTGLAVNIAALLSVMLQPYMPTVSATIQAQLQLPPPACSILLTNFLCTLPAGHQIGTVSPLFQKLENDQIESLRQRFGGGQAKTSPKPAVVETVTTAKPQQIQALMDEVTKQGNIVRELKAQKADKNEVAAEVAKLLDLKKQLAVAEGKPPEAPKGKKKK | 1 | 1 |  |  |  |  | Total (peptides) [3]: 3; Unique (peptides) [3]: 2
6 | TOR2A (protein, UniProt Q5JU69 27-321, looked up) Torsin-2A: AWDLASLRCTLGAFCECDFRPDLPGLECDLAQHLAGQHLAKALVVKALKAFVRDPAPTKPLVLSLHGWTGTGKSYVSSLLAHYLFQGGLRSPRVHHFSPVLHFPHPSHIERYKKDLKSWVQGNLTACGRSLFLFDEMDKMPPGLMEVLRPFLGSSWVVYGTNYRKAIFIFISNTGGKQINQVALEAWRSRRDREEILLQELEPVISRAVLDNPHHGFSNSGIMEERLLDAVVPFLPLQRHHVRHCVLNELAQLGLEPRDEVVQAVLDSTTFFPEDEQLFSSNGCKTVASRIAFFL |  |  | 2 | 2 | 1 | 1 | 
7 | CDYL (protein, UniProt Q9Y232 1-598, looked up) Chromodomain Y-like protein: MTFQASHRSAWGKSRKKNWQYEGPTQKLFLKRNNVSAPDGPSDPSISVSSEQSGAQQPPALQVERIVDKRKNKKGKTEYLVRWKGYDSEDDTWEPEQHLVNCEEYIHDFNRRHTEKQKESTLTRTNRTSPNNARKQISRSTNSNFSKTSPKALVIGKDHESKNSQLFAASQKFRKNTAPSLSSRKNMDLAKSGIKILVPKSPVKSRTAVDGFQSESPEKLDPVEQGQEDTVAPEVAAEKPVGALLGPGAERARMGSRPRIHPLVPQVPGPVTAAMATGLAVNGKGTSPFMDALTANGTTNIQTSVTGVTASKRKFIDDRRDQPFDKRLRFSVRQTESAYRYRDIVVRKQDGFTHILLSTKSSENNSLNPEVMREVQSALSTAAADDSKLVLLSAVGSVFCCGLDFIYFIRRLTDDRKRESTKMAEAIRNFVNTFIQFKKPIIVAVNGPAIGLGASILPLCDVVWANEKAWFQTPYTTFGQSPDGCSTVMFPKIMGGASANEMLLSGRKLTAQEACGKGLVSQVFWPGTFTQEVMVRIKELASCNPVVLEESKALVRCNMKMELEQANERECEVLKKIWGSAQGMDSMLKYLQRKIDEF |  |  |  |  | 1 | 1 | Total (total peptides) [5]: 1; Unique (unique peptides) [5]: 1
8 | PPT1 (protein, UniProt P50897 28-306, looked up) Palmitoyl-protein …: DPPAPLPLVIWHGMGDSCCNPLSMGAIKKMVEKKIPGIYVLSLEIGKTLMEDVENSFFLNVNSQVTTVCQALAKDPKLQQGYNAMGFSQGGQFLRAVAQRCPSPPMINLISVGGQHQGVFGLPRCPGESSHICDFIRKTLNAGAYSKVVQERLVQAEYWHDPIKEDVYRNHSIFLADINQERGINESYKKNLMALKKFVMVKFLNDSIVDPVDSEWFGFYRSGQAKETIPLQETSLYTQDRLGLKEMDNAGQLVFLATEGDHLQLSEEWFYAHIIPFLG |  |  |  |  | 1 | 1 | 
9 | ERAP1 (protein, UniProt Q9NZ08 1-941, looked up) Endoplasmic reticulum …: MVFLPLKWSLATMSFLLSSLLALLTVSTPSWCQSTEASPKRSDGTPFPWNKIRLPEYVIPVHYDLLIHANLTTLTFWGTTKVEITASQPTSTIILHSHHLQISRATLRKGAGERLSEEPLQVLEHPRQEQIALLAPEPLLVGLPYTVVIHYAGNLSETFHGFYKSTYRTKEGELRILASTQFEPTAARMAFPCFDEPAFKASFSIKIRREPRHLAISNMPLVKSVTVAEGLIEDHFDVTVKMSTYLVAFIISDFESVSKITKSGVKVSVYAVPDKINQADYALDAAVTLLEFYEDYFSIPYPLPKQDLAAIPDFQSGAMENWGLTTYRESALLFDAEKSSASSKLGITMTVAHELAHQWFGNLVTMEWWNDLWLNEGFAKFMEFVSVSVTHPELKVGDYFFGKCFDAMEVDALNSSHPVSTPVENPAQIREMFDDVSYDKGACILNMLREYLSADAFKSGIVQYLQKHSYKNTKNEDLWDSMASICPTDGVKGMDGFCSRSQHSSSSSHWHQEGVDVKTMMNTWTLQKGFPLITITVRGRNVHMKQEHYMKGSDGAPDTGYLWHVPLTFITSKSDMVHRFLLKTKTDVLILPEEVEWIKFNVGMNGYYIVHYEDDGWDSLTGLLKGTHTAVSSNDRASLINNAFQLVSIGKLSIEKALDLSLYLKHETEIMPVFQGLNELIPMYKLMEKRDMNEVETQFKAFLIRLLRDLIDKQTWTDEGSVSERMLRSQLLLLACVHNYQPCVQRAEGYFRKWKESNGNLSLPVDVTLAVFAVGAQSTEGWDFLYSKYQFSLSSTEKSQIEFALCRTQNKEKLQWLLDESFKGDKIKTQEFPQILTLIGRNPVGYPLAWQFLRKNWNKLVQKFELGSSSIAHMVMGTTNQFSTRTRLEEVKGFFSSLKENGSQLRCVQQTIETIEENIGWMDKNFDKIRVWLQSEKLERM |  |  |  |  | 1 | 1 | 
10 | CDIPT (protein, UniProt O14735 1-213, looked up) CDP-diacylglycerol--inositol …: MPDENIFLFVPNLIGYARIVFAIISFYFMPCCPLTASSFYLLSGLLDAFDGHAARALNQGTRFGAMLDMLTDRCSTMCLLVNLALLYPGATLFFQISMSLDVASHWLHLHSSVVRGSESHKMIDLSGNPVLRIYYTSRPALFTLCAGNELFYCLLYLFHFSEGPLVGSVGLFRMGLWVTAPIALLKSLISVIHLITAARNMAALDAADRAKKK |  |  | 1 | 1 | 1 | 1 | 
